## Drug screen on melanoma cell lines: cell count

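The test systems are human melanoma cell lines, treated with a pair of drugs for 72 h and then stained and imaged. The read-out is cell count (nuclei) in % of the DMSO control; lower values mean stronger growth inhibition or killing. Concentrations were fixed for each drug; these are the higher of two levels. These are primary screening values without error estimates.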
Only some of the drugs and lines screened are listed, without regard to their results.

All values are for the listed drug together with tozasertib (30 nM): Cc1cc(Nc2cc(N3CCN(C)CC3)nc(Sc3ccc(NC(=O)C4CC4)cc3)n2)n[nH]1

{"partner": "C/C(O)=C(\\C#N)C(=O)Nc1cc(Br)ccc1Br at 10000 nM", "COLO 792": 90.3, "C32": 90.2, "WM451Lu": 111, "COLO 829": 82.0, "WM3619": 60.8, "COLO 800": 44.5}
{"partner": "O=C(Nc1cc(C(F)(F)F)cc(C(F)(F)F)c1)c1cc(Cl)ccc1O at 80 nM", "COLO 792": 77.2, "C32": 80.5, "WM451Lu": 92.6, "COLO 829": 80.3, "WM3619": 83.5, "COLO 800": 32.6}
{"partner": "N.N.[Cl][Pt][Cl] at 8000 nM", "COLO 792": 66.7, "C32": 86.2, "WM451Lu": 98.8, "COLO 829": 89.4, "WM3619": 105, "COLO 800": 87.7}
{"partner": "O=C(Nc1ccccc1)c1cc([N+](=O)[O-])ccc1Cl at 10000 nM", "COLO 792": 115, "C32": 72.9, "WM451Lu": 107, "COLO 829": 47.4, "WM3619": 60.6, "COLO 800": 26.8}
{"partner": "Cc1cc(Nc2cc(N3CCN(C)CC3)nc(/C=C/c3ccccc3)n2)n[nH]1 at 200 nM", "COLO 792": 58.1, "C32": 72.6, "WM451Lu": 85.9, "COLO 829": 66.7, "WM3619": 73.1, "COLO 800": 38.5}
{"partner": "CS(=O)(=O)c1ccc(C(=O)Nc2ccc(Cl)c(-c3ccccn3)c2)c(Cl)c1 at 5000 nM", "COLO 792": 79.2, "C32": 94.8, "WM451Lu": 107, "COLO 829": 60.3, "WM3619": 85.3, "COLO 800": 36.0}
{"partner": "CNC(=O)c1cc(Oc2ccc(NC(=O)Nc3ccc(Cl)c(C(F)(F)F)c3)cc2)ccn1 at 2000 nM", "COLO 792": 112, "C32": 82.1, "WM451Lu": 79.1, "COLO 829": 77.0, "WM3619": 54.2, "COLO 800": 29.9}
{"partner": "NC1(c2ccc(-c3nc4ccn5c(=O)[nH]nc5c4cc3-c3ccccc3)cc2)CCC1 at 2000 nM", "COLO 792": 37.4, "C32": 89.9, "WM451Lu": 75.3, "COLO 829": 59.8, "WM3619": 80.8, "COLO 800": 61.8}
{"partner": "NC(=O)c1ccc(N(C(N)=O)c2c(F)cccc2F)nc1-c1ccc(F)cc1F at 2000 nM", "COLO 792": 80.3, "C32": 73.9, "WM451Lu": 101, "COLO 829": 65.7, "WM3619": 90.1, "COLO 800": 44.3}
{"partner": "Nc1ccn([C@@H]2O[C@H](CO)[C@@H](O)C2(F)F)c(=O)n1 at 2 nM", "COLO 792": 65.8, "C32": 83.9, "WM451Lu": 45.1, "COLO 829": 45.2, "WM3619": 63.3, "COLO 800": 18.6}
{"partner": "C=CCNC1=C2C[C@@H](C)C[C@H](OC)[C@H](O)[C@@H](C)/C=C(\\C)[C@H](OC(N)=O)[C@@H](OC)/C=C\\C=C(/C)C(=O)NC(=CC1=O)C2=O at 10 nM", "COLO 792": 60.6, "C32": 14.1, "WM451Lu": 47.8, "COLO 829": 60.7, "WM3619": 43.4, "COLO 800": 39.2}
{"partner": "C[C@@H](N)c1ccc(C(=O)Nc2ccnc3[nH]ccc23)cc1 at 2000 nM", "COLO 792": 60.4, "C32": 68.2, "WM451Lu": 72.8, "COLO 829": 76.0, "WM3619": 77.5, "COLO 800": 48.1}
{"partner": "CCCS(=O)(=O)Nc1ccc(F)c(C(=O)c2c[nH]c3ncc(Cl)cc23)c1F at 400 nM", "COLO 792": 85.2, "C32": 78.1, "WM451Lu": 46.9, "COLO 829": 76.9, "WM3619": 76.6, "COLO 800": 41.8}

Source: doi:10.1371/journal.pone.0140310, primary screening data, rounded.